Assay results published in patent publication US11632963B2, “Tuber storage” (Arysta Lifescience Benelux Sprl, priority 2014, dated 2023).

Test system: potatoes
Experiment: Taste test of treated potatoes (PCA and CRA-W panels)
Set-up: species or system Solanum tuberosum

SMILES: C=C(C)[C@H]1CC=C(C)CC1 [limonene]
- influence on the taste and smell of the potatoes compared to mint oil (after limonene treatment of Example 2): did not have a negative influence
- taste test compared to the untreated potatoes (high values equals the best taste) (both taste tests, FIG. 2): improves the taste
